Values quoted from earlier work as cited in publication PMC2747801 (European journal of pharmaceutical sciences : official …, 2009).

Details: rat, in vivo; cited from earlier work

For `COc1cc2c(cc1OC)C(=O)C(CC1CCN(Cc3ccccc3)CC1)C2` (stereo not shown) [donepezil], the “logPS(obs)” value is listed as −1.50 mL/g/s.
